Measured values published in paper PMC6579516.
These are yes or no findings as the source states them, for the method shown. Some results given as binding are weak or reduced against the parent protein; the word gives no strength.

The chains behind the UniProt entries cited, without tags or fusion partners.
UniProt P42945: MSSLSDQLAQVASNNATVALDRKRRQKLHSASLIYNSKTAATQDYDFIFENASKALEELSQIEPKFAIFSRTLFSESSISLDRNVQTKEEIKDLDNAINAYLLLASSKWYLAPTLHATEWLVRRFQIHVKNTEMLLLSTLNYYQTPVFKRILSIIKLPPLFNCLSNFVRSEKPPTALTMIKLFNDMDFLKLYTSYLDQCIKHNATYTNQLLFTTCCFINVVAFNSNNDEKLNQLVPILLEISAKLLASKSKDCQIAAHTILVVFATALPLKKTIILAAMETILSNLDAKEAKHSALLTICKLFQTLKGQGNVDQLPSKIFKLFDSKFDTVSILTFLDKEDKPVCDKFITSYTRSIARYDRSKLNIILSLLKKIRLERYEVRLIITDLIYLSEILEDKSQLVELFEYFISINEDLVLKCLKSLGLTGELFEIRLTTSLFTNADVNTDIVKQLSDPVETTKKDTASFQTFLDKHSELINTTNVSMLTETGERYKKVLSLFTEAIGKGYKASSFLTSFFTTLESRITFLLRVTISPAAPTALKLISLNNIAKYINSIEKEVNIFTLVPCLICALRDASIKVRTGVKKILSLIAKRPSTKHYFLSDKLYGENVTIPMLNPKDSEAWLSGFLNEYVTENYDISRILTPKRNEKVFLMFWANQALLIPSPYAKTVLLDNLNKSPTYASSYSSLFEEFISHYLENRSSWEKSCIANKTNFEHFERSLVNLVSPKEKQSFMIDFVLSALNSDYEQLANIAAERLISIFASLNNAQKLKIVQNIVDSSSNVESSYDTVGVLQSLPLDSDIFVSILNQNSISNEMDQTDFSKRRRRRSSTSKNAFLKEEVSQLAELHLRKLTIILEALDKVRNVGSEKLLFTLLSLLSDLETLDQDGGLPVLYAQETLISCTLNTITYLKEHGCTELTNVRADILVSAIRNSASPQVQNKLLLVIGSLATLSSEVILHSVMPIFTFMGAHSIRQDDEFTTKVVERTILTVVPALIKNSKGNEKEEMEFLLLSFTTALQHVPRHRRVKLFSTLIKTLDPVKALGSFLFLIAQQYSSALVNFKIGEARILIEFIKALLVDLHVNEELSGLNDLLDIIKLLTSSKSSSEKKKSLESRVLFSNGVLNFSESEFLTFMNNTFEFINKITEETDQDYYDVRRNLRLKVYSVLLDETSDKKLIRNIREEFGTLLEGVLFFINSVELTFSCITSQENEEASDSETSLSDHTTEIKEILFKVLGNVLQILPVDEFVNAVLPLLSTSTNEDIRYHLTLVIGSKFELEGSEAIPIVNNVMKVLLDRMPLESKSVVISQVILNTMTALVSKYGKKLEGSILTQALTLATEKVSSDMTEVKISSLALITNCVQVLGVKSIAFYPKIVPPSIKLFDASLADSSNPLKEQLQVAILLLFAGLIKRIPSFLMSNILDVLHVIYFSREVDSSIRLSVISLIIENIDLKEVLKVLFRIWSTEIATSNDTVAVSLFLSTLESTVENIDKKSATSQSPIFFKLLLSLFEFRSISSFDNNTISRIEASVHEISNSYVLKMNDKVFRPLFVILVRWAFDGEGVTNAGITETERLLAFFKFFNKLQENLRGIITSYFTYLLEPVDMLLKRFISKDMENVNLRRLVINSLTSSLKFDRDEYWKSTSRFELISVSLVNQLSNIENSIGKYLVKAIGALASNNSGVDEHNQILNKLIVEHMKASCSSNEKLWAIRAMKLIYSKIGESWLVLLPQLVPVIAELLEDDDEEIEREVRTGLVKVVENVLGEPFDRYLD
UniProt P40055: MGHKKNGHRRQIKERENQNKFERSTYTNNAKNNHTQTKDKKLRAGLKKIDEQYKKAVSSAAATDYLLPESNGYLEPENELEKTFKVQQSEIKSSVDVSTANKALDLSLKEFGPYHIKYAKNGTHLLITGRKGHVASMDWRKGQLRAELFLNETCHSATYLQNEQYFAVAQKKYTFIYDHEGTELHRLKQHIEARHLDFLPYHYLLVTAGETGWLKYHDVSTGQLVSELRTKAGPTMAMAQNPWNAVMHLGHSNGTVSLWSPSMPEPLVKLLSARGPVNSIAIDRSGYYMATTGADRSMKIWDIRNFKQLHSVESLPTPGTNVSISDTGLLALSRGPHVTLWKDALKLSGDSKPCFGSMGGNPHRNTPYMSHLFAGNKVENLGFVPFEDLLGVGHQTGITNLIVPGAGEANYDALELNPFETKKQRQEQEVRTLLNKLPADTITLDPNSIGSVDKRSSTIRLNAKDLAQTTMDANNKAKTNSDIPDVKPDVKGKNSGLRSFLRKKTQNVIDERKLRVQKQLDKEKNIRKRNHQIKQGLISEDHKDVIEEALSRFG

T1: Imp3 (S. cerevisiae (endogenous in BY4741-derived strain)) (UniProt P32899)
T1 sequence: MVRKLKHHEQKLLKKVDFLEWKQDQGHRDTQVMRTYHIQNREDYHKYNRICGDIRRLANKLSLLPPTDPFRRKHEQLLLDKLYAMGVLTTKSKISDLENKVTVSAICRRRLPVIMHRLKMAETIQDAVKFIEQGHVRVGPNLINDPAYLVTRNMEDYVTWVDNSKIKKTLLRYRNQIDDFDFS

B1: Mpp10 (protein, UniProt P47083 1-593)
chain: MSELFGVLKSNAGRIILKDPSATSKDVKAYIDSVINTCKNGSITKKAELDEITVDGLDANQVWWQVKLVLDSIDGDLIQGIQELKDVVTPSHNLSDGSTLNSSSGEESELEEAESVFKEKQMLSADVSEIEEQSNDSLSENDEEPSMDDEKTSAEAAREEFAEEKRISSGQDERHSSPDPYGINDKFFDLEKFNRDTLAAEDSNEASEGSEDEDIDYFQDMPSDDEEEEAIYYEDFFDKPTKEPVKKHSDVKDPKEDEELDEEEHDSAMDKVKLDLFADEEDEPNAEGVGEASDKNLSSFEKQQIEIRKQIEQLENEAVAEKKWSLKGEVKAKDRPEDALLTEELEFDRTAKPVPVITSEVTESLEDMIRRRIQDSNFDDLQRRTLLDITRKSQRPQFELSDVKSSKSLAEIYEDDYTRAEDESALSEELQKAHSEISELYANLVYKLDVLSSVHFVPKPASTSLEIRVETPTISMEDAQPLYMSNASSLAPQEIYNVGKAEKDGEIRLKNGVAMSKEELTREDKNRLRRALKRKRSKANLPNVNKRSKRNDVVDTLSKAKNITVINQKGEKKDVSGKTKKSRSGPDSTNIKL
B2: Utp15 (protein, UniProt Q04305 1-513)
chain: MSTARPRIITSKAPLLPQQTTPEQRYWRQYTSAQLVKEHNSVTHISFNPQHPHDFAVTSSTRVQIFSSRTRQVIKTFSRFKDVVYSASFRSDGKLLCAGDATGLVSVYDSYNPRTILLSINASTHPTHVTKFHTQDNKILATASDDRVTRLWDISNAYEPQLELTGATDYVRTLSFIPAAPHLVATGSYDGLIRLYDTRSSGSTPIYSLNHDQPVENVIAVSPTQIVSCGGNNFKVWDLTSNKKLYERGNFNKAVTCLDYVENFDSPMQSALIASSLDGHVKVFDPLDNFQVKFGWKFSGPVLSCAVSPSTAQGNRHLVAGLSSGLLAIRTKKKEKRSSDKENAPASFNKNAKSNNFQRMMRGSEYQGDQEHIIHNDKVRSQRRMRAFERNINQFKWSEALDNAFVPGMAKELTLTVLQELRKRGKVRVALYGRDESTLEPLLNWCLKGIEDVRSASIVADWVAVVLELYGNTLESSPVLQELMIDLKTKVRHEIHKSKEAQRIEGMLQLLTS
B3: Sof1 (protein, UniProt P33750 1-489)
chain: MKIKTIKRSADDYVPVKSTQESQMPRNLNPELHPFERAREYTKALNATKLERMFAKPFVGQLGYGHRDGVYAIAKNYGSLNKLATGSADGVIKYWNMSTREEFVSFKAHYGLVTGLCVTQPRFHDKKPDLKSQNFMLSCSDDKTVKLWSINVDDYSNKNSSDNDSVTNEEGLIRTFDGESAFQGIDSHRENSTFATGGAKIHLWDVNRLKPVSDLSWGADNITSLKFNQNETDILASTGSDNSIVLYDLRTNSPTQKIVQTMRTNAICWNPMEAFNFVTANEDHNAYYYDMRNLSRSLNVFKDHVSAVMDVDFSPTGDEIVTGSYDKSIRIYKTNHGHSREIYHTKRMQHVFQVKYSMDSKYIISGSDDGNVRLWRSKAWERSNVKTTREKNKLEYDEKLKERFRHMPEIKRISRHRHVPQVIKKAQEIKNIELSSIKRREANERRTRKDMPYISERKKQIVGTVHKYEDSGRDRKRRKEDDKRDTQEK
B4: Imp3 (protein, UniProt P32899 1-183)
chain: T1 sequence

These molecules were tested against T1, Imp3 (S. cerevisiae (endogenous in BY4741-derived strain)) (assay: cryo-EM structure; 5' ETS RNP assembled in vivo on the MS2-tagged pre-rRNA mimic covering the 5' ETS, 5' domain and central domain (B222) in strain Y186; tandem purification (MS2-3C-GFP on anti-GFP nanobody sepharose, 3C elution, then Utp10-SBP on streptavidin sepharose, biotin elution); 50 mM Tris-HCl pH 7.5, 150 mM NaCl, 5 mM MgCl2; 4.3 Å).

binding, binds:
B1

What follows are molecules tested against Utp10 with a C-terminal streptavidin-binding-peptide tag (S. cerevisiae) (UniProt P42945) in the same assay as above.

binding, binds:
Utp7 (from UniProt P40055 1-554), B1, B2, B3, B4
